The text below walks through data of article PMC10645975.

By UniProt entry, the sequences of proteins in these tests, tags left out.
UniProt Q9BPZ7: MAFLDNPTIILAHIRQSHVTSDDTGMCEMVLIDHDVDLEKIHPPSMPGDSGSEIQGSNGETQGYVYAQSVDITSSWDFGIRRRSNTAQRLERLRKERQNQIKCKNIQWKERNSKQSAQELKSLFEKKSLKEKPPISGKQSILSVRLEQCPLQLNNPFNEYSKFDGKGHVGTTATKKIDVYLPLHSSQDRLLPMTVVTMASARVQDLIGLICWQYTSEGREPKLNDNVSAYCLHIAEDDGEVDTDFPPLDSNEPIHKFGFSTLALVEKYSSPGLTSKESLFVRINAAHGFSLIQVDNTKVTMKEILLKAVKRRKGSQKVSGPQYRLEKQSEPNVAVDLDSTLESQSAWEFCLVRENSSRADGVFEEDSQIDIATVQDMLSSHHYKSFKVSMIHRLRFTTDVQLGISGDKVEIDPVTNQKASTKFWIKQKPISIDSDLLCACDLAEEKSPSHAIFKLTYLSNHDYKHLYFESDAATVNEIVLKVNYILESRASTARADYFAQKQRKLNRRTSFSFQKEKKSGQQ
UniProt B1AWN6: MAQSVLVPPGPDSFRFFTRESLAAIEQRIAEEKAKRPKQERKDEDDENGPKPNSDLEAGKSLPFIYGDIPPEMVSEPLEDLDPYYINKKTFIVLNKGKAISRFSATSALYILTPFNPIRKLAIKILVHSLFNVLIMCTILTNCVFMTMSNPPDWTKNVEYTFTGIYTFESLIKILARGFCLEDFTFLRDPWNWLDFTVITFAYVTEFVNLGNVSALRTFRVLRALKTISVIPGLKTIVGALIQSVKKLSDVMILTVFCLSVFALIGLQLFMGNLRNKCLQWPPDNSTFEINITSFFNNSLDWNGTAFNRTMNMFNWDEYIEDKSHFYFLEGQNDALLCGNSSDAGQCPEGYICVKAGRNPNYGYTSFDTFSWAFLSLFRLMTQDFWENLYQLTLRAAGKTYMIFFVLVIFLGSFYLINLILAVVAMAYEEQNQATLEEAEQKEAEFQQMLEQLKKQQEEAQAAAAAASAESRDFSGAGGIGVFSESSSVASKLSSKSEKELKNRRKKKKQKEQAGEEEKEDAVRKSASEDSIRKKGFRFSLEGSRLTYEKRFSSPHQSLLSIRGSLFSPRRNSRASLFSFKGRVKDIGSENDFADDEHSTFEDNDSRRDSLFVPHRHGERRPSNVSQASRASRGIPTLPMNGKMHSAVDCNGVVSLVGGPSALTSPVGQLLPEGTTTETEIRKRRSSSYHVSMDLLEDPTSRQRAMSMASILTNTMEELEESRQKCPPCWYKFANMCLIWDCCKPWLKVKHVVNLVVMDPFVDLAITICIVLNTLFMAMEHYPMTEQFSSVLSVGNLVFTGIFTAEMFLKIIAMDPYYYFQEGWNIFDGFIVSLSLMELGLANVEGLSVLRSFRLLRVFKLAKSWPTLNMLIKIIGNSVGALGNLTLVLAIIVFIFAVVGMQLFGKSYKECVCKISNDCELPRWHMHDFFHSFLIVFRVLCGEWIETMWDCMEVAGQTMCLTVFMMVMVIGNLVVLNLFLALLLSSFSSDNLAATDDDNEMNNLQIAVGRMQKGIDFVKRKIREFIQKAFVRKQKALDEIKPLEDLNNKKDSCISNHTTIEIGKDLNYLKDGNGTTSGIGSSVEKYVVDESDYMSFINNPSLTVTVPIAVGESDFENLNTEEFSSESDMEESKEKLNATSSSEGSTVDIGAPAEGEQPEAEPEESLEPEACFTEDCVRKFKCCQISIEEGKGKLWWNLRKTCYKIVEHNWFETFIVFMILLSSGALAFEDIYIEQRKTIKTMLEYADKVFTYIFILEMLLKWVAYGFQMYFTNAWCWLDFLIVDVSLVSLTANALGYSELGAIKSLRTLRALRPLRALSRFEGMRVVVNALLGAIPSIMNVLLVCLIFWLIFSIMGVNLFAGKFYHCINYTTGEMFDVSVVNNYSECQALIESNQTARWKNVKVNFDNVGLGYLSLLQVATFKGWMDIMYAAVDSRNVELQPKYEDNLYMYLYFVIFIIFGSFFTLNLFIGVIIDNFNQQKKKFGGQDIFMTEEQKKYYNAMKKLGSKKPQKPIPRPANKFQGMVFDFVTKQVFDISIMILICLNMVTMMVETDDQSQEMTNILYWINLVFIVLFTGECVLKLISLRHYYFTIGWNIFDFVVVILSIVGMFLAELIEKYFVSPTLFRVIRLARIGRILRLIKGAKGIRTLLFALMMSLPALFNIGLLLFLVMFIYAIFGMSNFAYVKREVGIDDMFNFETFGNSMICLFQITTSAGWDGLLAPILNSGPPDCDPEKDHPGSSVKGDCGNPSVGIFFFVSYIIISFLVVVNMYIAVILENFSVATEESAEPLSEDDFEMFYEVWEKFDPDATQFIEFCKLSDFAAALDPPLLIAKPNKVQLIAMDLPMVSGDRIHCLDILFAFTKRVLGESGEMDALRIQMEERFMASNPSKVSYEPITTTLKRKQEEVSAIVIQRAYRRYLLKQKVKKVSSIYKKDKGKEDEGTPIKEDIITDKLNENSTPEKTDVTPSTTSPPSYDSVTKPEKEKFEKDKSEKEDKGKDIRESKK
UniProt Q8N122: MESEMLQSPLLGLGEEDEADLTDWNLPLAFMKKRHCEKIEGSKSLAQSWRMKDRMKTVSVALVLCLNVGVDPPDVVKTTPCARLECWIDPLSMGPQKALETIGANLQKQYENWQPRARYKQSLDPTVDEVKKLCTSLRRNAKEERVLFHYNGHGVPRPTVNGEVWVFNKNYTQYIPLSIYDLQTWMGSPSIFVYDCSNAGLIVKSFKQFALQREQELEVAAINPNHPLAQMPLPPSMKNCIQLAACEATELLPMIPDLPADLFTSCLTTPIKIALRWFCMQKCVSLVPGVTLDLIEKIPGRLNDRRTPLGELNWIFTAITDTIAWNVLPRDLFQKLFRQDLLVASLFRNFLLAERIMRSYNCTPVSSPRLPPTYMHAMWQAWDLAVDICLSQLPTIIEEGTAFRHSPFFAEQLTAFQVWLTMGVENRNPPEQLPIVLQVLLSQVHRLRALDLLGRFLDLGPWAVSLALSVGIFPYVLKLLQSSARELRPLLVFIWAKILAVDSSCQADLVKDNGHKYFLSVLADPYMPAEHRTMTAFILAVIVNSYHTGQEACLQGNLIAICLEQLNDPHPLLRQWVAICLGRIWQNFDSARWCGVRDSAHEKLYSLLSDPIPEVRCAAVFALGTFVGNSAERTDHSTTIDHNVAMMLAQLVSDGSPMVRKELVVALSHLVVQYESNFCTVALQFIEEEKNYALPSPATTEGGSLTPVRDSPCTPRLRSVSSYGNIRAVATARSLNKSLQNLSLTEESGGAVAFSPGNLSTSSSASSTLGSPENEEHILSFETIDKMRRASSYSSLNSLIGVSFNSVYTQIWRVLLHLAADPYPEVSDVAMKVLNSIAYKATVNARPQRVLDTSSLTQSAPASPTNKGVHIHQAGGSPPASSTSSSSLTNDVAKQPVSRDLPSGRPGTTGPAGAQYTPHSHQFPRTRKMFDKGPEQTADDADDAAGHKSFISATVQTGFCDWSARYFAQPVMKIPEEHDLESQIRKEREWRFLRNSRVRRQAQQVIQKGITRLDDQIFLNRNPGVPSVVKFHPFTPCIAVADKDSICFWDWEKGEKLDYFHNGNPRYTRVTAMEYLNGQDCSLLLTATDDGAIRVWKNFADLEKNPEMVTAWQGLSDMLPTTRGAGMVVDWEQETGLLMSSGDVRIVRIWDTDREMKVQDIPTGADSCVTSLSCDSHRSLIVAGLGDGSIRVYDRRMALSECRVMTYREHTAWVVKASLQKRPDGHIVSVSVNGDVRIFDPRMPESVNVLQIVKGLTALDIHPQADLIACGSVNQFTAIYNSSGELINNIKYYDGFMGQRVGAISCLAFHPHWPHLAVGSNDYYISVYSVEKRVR

Experiment [1] has as its target HA-Sin1 (mitogen-activated protein kinase associated protein 1) (UniProt Q9BPZ7). The experiment in a line: co-IP; anti-HA magnetic beads on lysates of HEK293T cells co-expressing GFP-Scn2a and HA-Sin1; CHAPS lysis buffer (40 mM HEPES pH 7.5, 120 mM NaCl, 0.3% CHAPS), 4 C, 1 h or overnight; blots for GFP, HA, Raptor, Rictor, beta-actin.
The target in experiment [2] is GFP-Nav1.2 (encoded by Scn2a) (UniProt B1AWN6). Put plainly: co-IP; GFP-Trap magnetic particles on lysates of HEK293T cells expressing GFP or GFP-Scn2a alone or co-expressed with HA-Sin1; CHAPS lysis buffer (40 mM HEPES pH 7.5, 120 mM NaCl, 0.3% CHAPS), 4 C, 1 h or overnight; blots for GFP, Raptor, Rictor, beta-actin.

Results are given in words; binding and its absence hold for the method and conditions named. In cells and extracts the contact can be indirect. Some entries that bind do so weakly or less than the wild type.

On to “GFP-Nav1.2 (encoded by Scn2a) (from UniProt B1AWN6 1-2006)”, for which the binding entry in experiment [1] is on record as “binds”.
In the case of “Raptor (regulatory-associated protein of mTOR) (from UniProt Q8N122 1-1335)”, the binding result in experiment [2] is given as “no binding”.
